This is an account of results in article PMC8689486.

Results are given in words; binding and its absence hold for the method and conditions named. Binding seen in cells or lysates may run through a third protein. Some results given as binding are weak or reduced against the parent protein; the word gives no strength.

This test deals with T1, ADP-ribosylation factor-like protein 15 (ARL15) (mouse (endogenous in mouse brain, iWAT and 3T3-L1)) (UniProt Q8BGR6).
T1 sequence: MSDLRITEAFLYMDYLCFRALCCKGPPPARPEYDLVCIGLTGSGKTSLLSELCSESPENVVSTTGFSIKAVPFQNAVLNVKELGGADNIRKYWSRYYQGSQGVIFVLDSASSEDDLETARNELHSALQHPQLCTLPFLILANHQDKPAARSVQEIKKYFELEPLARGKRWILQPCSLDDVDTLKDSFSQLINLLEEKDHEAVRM
Briefly: co-IP; WT mouse brain lysate precipitated with anti-ARL15 antibody and Protein G Sepharose, rabbit IgG as control; western blot for ARL6IP5. For orientation: In western blotting, separated proteins are transferred to a membrane and probed.

B1: ADP Ribosylation Factor like GTPase 6 Interacting Protein 5 (ARL6IP5) (protein, UniProt Q8R5J9 1-188)
chain: MDVNLAPLRAWDDFFPGSDRFARPDFRDISKWNNRVVSNLLYYQTNYLVVAAMMISVVGFLSPFNMILGGVIVVLVFMGFVWAAHNKDILRRMKKQYPTAFVMVVMLASYFLISMFGGVMVFVFGITLPLLLMFIHASLRLRNLKNKLENKMEGIGLKKTPMGIILDALEQQEDNINKFADYISKARE
As for B1, the binding result is reported as “binds”.
